B1: CD22 scFv-CD8α-4-1BB-CD3ζ CAR (other)
chain: DIELTQSPSSLAVSVGEKVTMSCKSSQSLLYSSNQKNYLAWYQQKPGQSPKLLIYWASTRESGVPDRFTGSGSGTDFTLTVSSVKAEDLAVYYCQQSYSYPFTFGSGTKLEIKRGGGGSGGGGSGGGGSQVKLQQSGPELVKPGASVKISCKASGYDFSISWMNWVRQRPGQGLEWIGRIYPGDGDSNYNGKFEGKATLTADKSSSTAYMQLSGLTSVDSAVYFCARTTTMIALYAMDYWGQGTTVTVSSTTTPAPRPPTPAPTIASQPLSLRPEACRPAAGGAVHTRGLDFACDIYIWAPLAGTCGVLLLSLVITLYKRGRKKLLYIFKQPFMRPVQTTQEEDGCSCRFPEEEEGGCELRVKFSRSADAPAYQQGQNQLYNELNLGRREEYDVLDKRRGRDPEMGGKPRRKNPQEGLYNELQKDKMAEAYSEIGMKGERRRGKGHDGLYQGLSTATKDTYDALHMQALPPR
B2: CD22 VL-CD19 VL-CD19 VH-CD22 VH-CD8α-4-1BB-CD3ζ CAR (other)
chain: DIELTQSPSSLAVSVGEKVTMSCKSSQSLLYSSNQKNYLAWYQQKPGQSPKLLIYWASTRESGVPDRFTGSGSGTDFTLTVSSVKAEDLAVYYCQQSYSYPFTFGSGTKLEIKRGGGGSDIVLTQSPKFMSTSVGDRVSVTCKASQNVGTNVAWYQQKPGQSPKPLIYSATYRNSGVPDRFTGSGSGTDFTLTITNVQSKDLADYFCQQYNRYPYTSGGGTKLEIKRGSTSGSGKPGSGEGSTKGQVQLQQSGAELVRPGSSVKISCKASGYAFSSYWMNWVKQRPGQGLEWIGQIYPGDGDTNYNGKFKGQATLTADKSSSTAYMQLSGLTSEDSAVYFCARKTISSVVDFYFDYWGQGTTLTVSSGGGGSQVKLQQSGPELVKPGASVKISCKASGYDFSISWMNWVRQRPGQGLEWIGRIYPGDGDSNYNGKFEGKATLTADKSSSTAYMQLSGLTSVDSAVYFCARTTTMIALYAMDYWGQGTTVTVSSEFTTTPAPRPPTPAPTIASQPLSLRPEACRPAAGGAVHTRGLDFACDIYIWAPLAGTCGVLLLSLVITLYKRGRKKLLYIFKQPFMRPVQTTQEEDGCSCRFPEEEEGGCELRVKFSRSADAPAYQQGQNQLYNELNLGRREEYDVLDKRRGRDPEMGGKPRRKNPQEGLYNELQKDKMAEAYSEIGMKGERRRGKGHDGLYQGLSTATKDTYDALHMQALPPR
B3: CD19 scFv-CD8α-4-1BB-CD3ζ CAR (other)
chain: DIVLTQSPKFMSTSVGDRVSVTCKASQNVGTNVAWYQQKPGQSPKPLIYSATYRNSGVPDRFTGSGSGTDFTLTITNVQSKDLADYFCQQYNRYPYTSGGGTKLEIKRGGGGSGGGGSGGGGSQVQLQQSGAELVRPGSSVKISCKASGYAFSSYWMNWVKQRPGQGLEWIGQIYPGDGDTNYNGKFKGQATLTADKSSSTAYMQLSGLTSEDSAVYFCARKTISSVVDFYFDYWGQGTTLTVSSTTTPAPRPPTPAPTIASQPLSLRPEACRPAAGGAVHTRGLDFACDIYIWAPLAGTCGVLLLSLVITLYKRGRKKLLYIFKQPFMRPVQTTQEEDGCSCRFPEEEEGGCELRVKFSRSADAPAYQQGQNQLYNELNLGRREEYDVLDKRRGRDPEMGGKPRRKNPQEGLYNELQKDKMAEAYSEIGMKGERRRGKGHDGLYQGLSTATKDTYDALHMQALPPR

These binders were tested against T1, CD22 antigen molecule (human, UniProt P20273 20-847) (assay: cell-based or functional assay).
T1 sequence (looked up): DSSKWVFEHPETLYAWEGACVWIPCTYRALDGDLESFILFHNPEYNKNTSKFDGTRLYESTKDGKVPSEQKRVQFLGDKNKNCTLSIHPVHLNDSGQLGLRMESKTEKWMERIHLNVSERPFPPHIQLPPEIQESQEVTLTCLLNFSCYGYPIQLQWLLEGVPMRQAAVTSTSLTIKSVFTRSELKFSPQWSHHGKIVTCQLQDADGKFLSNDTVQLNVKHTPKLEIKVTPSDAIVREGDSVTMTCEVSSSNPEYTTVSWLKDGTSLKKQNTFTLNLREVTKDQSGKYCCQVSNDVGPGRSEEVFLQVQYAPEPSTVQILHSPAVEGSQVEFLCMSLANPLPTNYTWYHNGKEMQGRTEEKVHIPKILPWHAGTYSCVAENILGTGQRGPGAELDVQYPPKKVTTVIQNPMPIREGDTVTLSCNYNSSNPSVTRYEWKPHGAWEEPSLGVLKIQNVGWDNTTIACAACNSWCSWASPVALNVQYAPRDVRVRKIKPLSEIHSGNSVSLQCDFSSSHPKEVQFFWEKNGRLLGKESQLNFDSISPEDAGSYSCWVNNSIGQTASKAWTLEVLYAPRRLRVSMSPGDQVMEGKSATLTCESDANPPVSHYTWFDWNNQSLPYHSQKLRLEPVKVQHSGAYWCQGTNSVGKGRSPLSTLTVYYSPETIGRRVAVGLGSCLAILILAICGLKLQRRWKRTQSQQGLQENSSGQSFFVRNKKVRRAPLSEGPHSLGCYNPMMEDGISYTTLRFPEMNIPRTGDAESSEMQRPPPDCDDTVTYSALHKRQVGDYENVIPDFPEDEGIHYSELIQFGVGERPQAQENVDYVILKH

B1 and B2 cannot be ordered by “degranulation level (CD107a on GFP+ cells) after co-culture with MV4-11-CD22 cells, E:T 1:1, 4 h” value: no less than 15% for the first, no less than 15% for the second.

For B3, the “degranulation level (CD107a on GFP+ cells) after co-culture with MV4-11-CD22 cells, E:T 1:1, 4 h” value was no more than 2%.

— US20230272069A1 (INSTITUTE OF HEMATOLOGY AND BLOOD DISEASES HOSPITAL CHINESE …, published 2023)
